The assay deals with BatR-3xFlag (P. aeruginosa PAO1) (UniProt Q9HZF9). Kind of assay: affinity purification with mass spectrometry; co-immunoprecipitation of BatR-3xFlag (bait) with PAO1 proteins, mass spectrometry of the precipitate; protocol in S5 Data.

Protein sequences, listed by entry. Tags and fused reporters are not part of them. Lines headed by an entry give the natural chain unless they say otherwise; changes in a name come on top.
UniProt Q9HZF9: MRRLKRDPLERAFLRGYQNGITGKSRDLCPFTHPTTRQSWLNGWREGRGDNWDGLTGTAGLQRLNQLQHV

No constants are given. Whether binding was seen depends on the method and setting. Binding seen in cells or lysates may run through a third protein. Here binding means that the protein was enriched with, or labelled near, the bait; the list need not be complete.

B1: Uncharacterized protein PA1069 (protein, UniProt Q9I4Q5 1-764)
chain: MDIWNWVEKLRADLREAGQEQSARLIDELTAYVCDLEVERAEALLPEVKALSRTLNNPWLEIFVRHWEMRNRVGNQLEGETALADAVSLFELANRDDTQACPQSVCVTQDLASCYANVDGPGWVEERIEVCDETLARIDPTWACFHCLSNEKAEALLDDGRGEDALAFLAEQEKKILAAGEEVFDSLLEMRVAILLNLGRAEQALALIGEMEEKVEGAEWNNISQPRRLYKAHGLALLGRDEEALEALLPFSEIAPRYRTIWLRAVYLLLQRTPERNTWDFGGRLQQMLEHYSQKGAHRVVIDVASQAIRLALQRGSVWSARRHLALAEQHAQQLQRDRGASQLLAGLREEIDAAPQQQELPVPAAELLDWLAAQGSEDAPRNPEKEVQWLLQALAERPDDTALREVAASALQACSADDEAIDLLWEYVERHTDEEQQLAYYLLNALLARGEYDQVKRLGRLYADSVPLIALWSEVKLAEKLNDWPELERACQSVLEISPGSLGAHSLLGKALMEQDRFAEAALAYQRLAGKLEEPQSVQWDQMTAASAARDWTMLREVAAGMGMEFAAGDGPIEEDWGWVIVRYIEDGEALDYYARRTGPVTARVLENAPGNRSQRVGDWVVFDAGLIYPAPEDEEERKRFVPTYAMVHVLESGGYSPSWLVDGVYPGDEAFDAFRETLDARGWKVWVHSNRDYQVTDASSGEELRAIYFTVATPAQQAPRDLHQALQEATGQWPHRMCWLRLAEAAEVDTQPHLDAIERYGL
Turning to B1, the binding result is listed as “binds”.

For the origin of these results see publication PMC13411936.
